Patent publication US12465616B2, “Methods and compositions for disrupting biofilm utilizing chitosan-derivative compounds” (SYNEDGEN, INC., priority 2009, dated 2025)

System: Pseudomonas aeruginosa
Experiment: Tobramycin synergy checkerboard assay (MIC, FIC)
Assay type: cell-based
Conditions: 20 h, 20 hours at 37° C., about 10^5 cells per mL, read-out: MIC Antimicrobial Alone
Procedure: A checkerboard assay was used to screen 64 unique combinations of antimicrobial concentrations in triplicate. For each study, approximately 10^5 cells per mL were treated with chitosan-arginine (64-0.5 μg/mL) and/or tobramycin (4-0.031 μg/mL). Bacteria were incubated at 37° C. for 20 hours. The fluorescent pigment pyocyanin produced by Pseudomonas aeruginosa can be correlated with bacterial growth. The Minimum Inhibitory Concentration (MIC) values obtained with this protocol (fluorescence was measured 485 nm excitation, 535 nm emission) are the same as those obtained using optical density (Hoffman et. al., 2005).
Three independent checkerboard assays were completed in triplicate using different lots of chitosan-arginine and tobramycin with the MIC of each antimicrobial alone reported in Table 6 (column 1). The amounts of chitosan-arginine (μg/ml) co-administered are in bold. The tobramycin MIC reported in response to co-administered C/A is noted above the bolded values. It is clear that the addition of 0.5 μg/ml chitosan-arginine caused the MIC of tobramycin to be reduced 4 to 8-fold.
The FIC is an interaction coefficient indicating whether the combined inhibitory/bacteristatic effect of drugs is synergistic, additive or antagonistic (FIC=A+B) where: A=(MIC of X with Y)/(MIC of drug X alone) and, B=(MIC of Y with X)/(MIC of drug Y alone). […]

NC[C@H]1O[C@H](O[C@H]2[C@H](O)[C@@H](O[C@H]3O[C@H](CO)[C@@H](O)[C@H](N)[C@H]3O)[C@H](N)C[C@@H]2N)[C@H](N)C[C@@H]1O [Tobramycin]
MIC: 0.5 µg/mL
